In paper doi:10.1101/2025.08.28.672867 one finds binding data, which are given here for four molecules.

The chains behind the UniProt entries cited, without tags or fusion partners.
UniProt O60016: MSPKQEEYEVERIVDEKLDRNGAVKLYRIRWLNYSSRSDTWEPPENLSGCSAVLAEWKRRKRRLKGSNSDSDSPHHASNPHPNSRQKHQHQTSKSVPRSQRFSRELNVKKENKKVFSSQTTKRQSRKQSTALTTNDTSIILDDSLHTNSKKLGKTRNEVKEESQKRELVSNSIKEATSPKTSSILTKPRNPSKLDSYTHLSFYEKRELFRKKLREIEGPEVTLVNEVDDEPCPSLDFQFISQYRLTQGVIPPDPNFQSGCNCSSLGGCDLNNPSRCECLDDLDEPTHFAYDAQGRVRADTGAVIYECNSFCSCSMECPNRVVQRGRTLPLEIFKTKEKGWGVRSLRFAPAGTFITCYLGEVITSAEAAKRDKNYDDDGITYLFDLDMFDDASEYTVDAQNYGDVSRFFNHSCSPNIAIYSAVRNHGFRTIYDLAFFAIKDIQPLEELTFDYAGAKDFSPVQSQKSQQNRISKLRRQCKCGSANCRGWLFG

Results are given in words; binding and its absence hold for the method and conditions named. Binding seen in cells or lysates may run through a third protein. Here binding means that the protein was enriched with, or labelled near, the bait; the list need not be complete. For some of these results: Sequences can lack the tags named with a protein.

Assay [1] has as its target FLAG-Clr4 (N-terminal 3×FLAG), wild type (S. pombe), O60016. Nature of the assay: affinity purification with mass spectrometry; FLAG-Clr4 immunoprecipitations from S. pombe lysates (wild-type, cul4-K680R and cul4–1 cells); TMT quantitative mass spectrometry. As to conditions: remark: other sources report otherwise.
Assay [2] concerns the target FLAG-Clr4 (N-terminal 3×FLAG), wild type (S. pombe) (UniProt O60016). The assay is described as above.

B1: Raf2 in S. pombe cells, O74560 1-636 (protein)
chain: MPPVRAEKKRKTDLIEQVCVTNKAGELVDLEDVLEYGPYSLTGILSSEKDEQEPLFDESIVLGYSIKISPVWTYNLKDVPEKETMSIWIVTPQRRYGILSPSSEYKAIYEQISEKNRLFYLIKTKFKDDMISGTLEDYDNYIEVLKEKLELPSCFQAILLVQKHIRFLLTQMVATSSLHVWSESPFFIRIRSSYEHLILQINKNIYNARQERKKSKLSSNNPSDNNTTMKSSLNQALTLINLPEQPFSISSPTATPQLGVVKRTSPLRFPLNDIWLSGLRIVDPNIESISLWKRIQVSTSPKHQRYISLQEVCSVIAQQLQITNLEALNKLSSHGETLLQIMHTAFTWRGTKLFNDIKHAIGFRSSVQQARSQFRGYCYDYLFMHCNNGEKTSLHLLRTLICMKLDFSNAQLAAKILFHFLLFDIGSGLSGSDYTYEQYINHSAVAFSFTEEIFEKNFVTVLPDFVKLFSISFGYWPAFSFYDELLKLLRNKYPKVYSSTPNLCDQVWLDRTNLFPCNRSTRSTLPYRPTKLLDLASASSCLSKKETDFKQDTGLYSYNLEKVEALKVSPDLQTGIWSCPVQNCLYFAVCDNPYKPSQVIYDHLLGHVDSKFIFKTPSNSVRSFTNKLEHIMYNIN
Take B1: in assay [1], the binding entry was “binds”.

B2: Rik1-myc (protein, UniProt Q10426 1-1040)
chain: MALCVHSFWATAVDTATSCHFISSENCLVLLQALKINIYLCSEVHGLQFFTSIPLFSTVKHIRPYRPPGLDRDYLFVVLNDDTYFSIYWDEDYQKVIVDHPPVRYRVTFPWNRNAKSYCLVDLRMRAIFLSIDEISMICIRILSAEERLKTGRSIDSGFPFSFPVHLIYDMCILNDSSTPTLVVLHSDGLDCYVTAFLLDLSSKSLGKGIRLFERVKPSMIMPFGKRGLLVFESLFIHCMYRGNFVTINGPCTTYMHWTPLKGQKMHYIVCDTNGYLFGVYSSILGKNKWSLVMERLPIPPFDFITSLNSIHEGLLFIGSKNSESKLINLSTLKDVDSIPNLGPIHDLLVLKNDIEKSFLVCAGTPRNASLIYFQHALKLDILGQTKISGILRAMVLPSYPEHKLFLGFPSETVAFNIKEDFQLELDPSLSTKERTIALSGTNGEFVQVTSTFLCIYDSAKRSRLVYIEKITNAACYQEYSAIVINGTALAIFKKDTEVARKVFESEISCLDFSAQFQIGVGFWSKQVMILTFSDNSSISCAFQTNVPSLPRNIILEGVGVDRNLLLVSSGSGEFKSYVLFKNNLVFSETKHFGTTPVSFRRFTMNIGTYIICNNDCPHMVYGFNGALCYMPLSMPQSYDVCQFRDNSGKDFLISVSLGGLKFLQLNPLPELTPRKVLLEHVPLQAIIFQNKLLLRTLENRYEDYESYKENYHLELVDSYDDNSFRVFSFTENERCEKVLKINESSLLVGTSIIEQDKLVPVNGRLILLEFEKELQSLKVVSSMVLSAAVIDLGVYNDRYIVAFGQQVAIVKLTEERLMIDSRISLGSIVLQLIVEGNEIAIADSIGRFTIMYFDGQKFIVVARYLFGENIVKAALYEGTVYIIATNSGLLKLLRYNKDAKNFNDRFICESVYHLHDKVSKFQNFPITNTNSFLEPKMLFATEIGAIGSIVSLKDKELELEELTRKIRKLKFSYLSSMDYESIEADLISPVPFIDGDLVIDVKRWASSELFRLCRSVEHRESLNSYQKVQALLEEIQSLC
On to B2, for which the binding entry in assay [2] is given as “binds”.

B3: Cul4-K680R (protein, UniProt O14122 1-734)
chain: MPPEAKRIVVKGFDPRKSRQRQETYYVTMIDRLNMALQVVMAGLGLKTGYQELYSGVENLTRADQASRCFNILQHHMSSGIQLLKDSAESFIQLEGTETDTNACTVVVGCWNKWLERVEIVQNIFYYMDKTFLSHHPDYPTIEELSLSLFREKLMAVKNIQIPFLNSLLQSFENLHSSKSTDHAYLQDAMLMLHRTEMYSSVFVPMYLVMLSRFYDTESSQKIQELPLEEYLEYAMSSLEREDAYVEKFDIVRDKKSIRETVQRCLITSHLDTLTKGISQFIEKRDAHSCKLLYALLQFNHETEYLIQPWSDCLVDVGFKLVNDESKDDTLVQELLSFHKFLQVVVDESFLHDETLSYAMRKAFETFINGAKGSQREAPARLIAKYIDYLLRVGEQASGGKPLKEVFSEILDLFRYIASKDIFEAYYKLDIAKRLLLNKSASAQNELMLLDMLKKTCGSQFTHSLEGMFRDVNISKEFTSSFRHSKAAHNLHRDLYVNVLSQAYWPSYPESHIRLPDDMQQDLDCFEKFYLSKQVGKKISWYASLGHCIVKARFPLGNKELSISLFQACVLLQFNNCLGGEGISYQDLKKSTELSDIDLTRTLQSLSCARIRPLVMVPKSKKPSPDTMFYVNEKFTDKLYRVKINQIYLKEERQENSDVQEQVVRDRQFELQASIVRVMRQKEKMKHDDLVQYVINNVKDRGIPLVSDVKTAIEKLLEKEYLEREDNDIYTYVT
Take B3: the binding result in assay [2] was “binds”.

B4: Raf1 in S. pombe cells (protein, UniProt O74910 1-638)
chain: MTNSSPRVKRRTDTQYLHSVSSKLPKVDFDTNNEEFFEEEFEIYDPFYRAELPCPKPSLSISKHSIAKVPSNVNKRLELQLLLTSGTFLPNSRPYLSERVRKHTHLLSNSITGDDKPSLIHVDFTPEECFILQEAKLKFGPVNSVQFNDAYSTHISPKLPGRAYEDCQKFEIDNPSLSPVDKHGAIILRTYKKNKKLLPDYLKSFYNAGSSYFQREQVHQLMDGESVFFLKPWKHFNETSGDTVCVAYNPLCEKFALGSTAQDGAYNRLGNLWIGDFHSETIQSLESHYKLNQVGEKEYSTISDLCFSKGNLFLYTGAFDNAVKVWDMEGNLCGIFNAPTDYIHKLALSDDDLLAVACKNGYGYLLSTDNSTGEILTSANLIYPEALEKGYSASLIEFSNFLGRSSDKVIIGYDSFHTSNNRGCLALFDASTASFVQKFNTADEAFTSLYMHPSQVGFVASSNTLSNGRVYYLDTRMYKVCLNFTTTQKDINHATISNSGILVTSSGTDNQTFVWDSRKPDKPLSLLKHGKTKMIHFDGANEEEVDAGINMAQWQPKGNLFVTGGSDGIVKVWDLRLNNPFIQNFTEMNSAITYGGFSEDASKLTVCCVGGDVNMYSLGNDNGNKFGEFRIIENRLLT
B4: the binding entry in assay [2] is “binds”.
